Laboratory results taken from PMC9929257.

Sequences of proteins named here, by UniProt entry; tags and fusion partners are left off. A change or cut given only in a name is not applied to a line headed by its entry.
UniProt Q9BV68: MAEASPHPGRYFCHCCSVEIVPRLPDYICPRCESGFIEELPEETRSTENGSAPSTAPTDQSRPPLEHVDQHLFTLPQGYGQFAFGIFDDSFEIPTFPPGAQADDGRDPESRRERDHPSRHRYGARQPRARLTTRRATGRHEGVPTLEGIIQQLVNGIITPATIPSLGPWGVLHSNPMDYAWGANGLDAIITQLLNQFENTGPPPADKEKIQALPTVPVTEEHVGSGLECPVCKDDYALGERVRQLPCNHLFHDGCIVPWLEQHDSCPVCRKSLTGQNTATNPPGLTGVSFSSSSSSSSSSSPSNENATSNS
UniProt Q92878: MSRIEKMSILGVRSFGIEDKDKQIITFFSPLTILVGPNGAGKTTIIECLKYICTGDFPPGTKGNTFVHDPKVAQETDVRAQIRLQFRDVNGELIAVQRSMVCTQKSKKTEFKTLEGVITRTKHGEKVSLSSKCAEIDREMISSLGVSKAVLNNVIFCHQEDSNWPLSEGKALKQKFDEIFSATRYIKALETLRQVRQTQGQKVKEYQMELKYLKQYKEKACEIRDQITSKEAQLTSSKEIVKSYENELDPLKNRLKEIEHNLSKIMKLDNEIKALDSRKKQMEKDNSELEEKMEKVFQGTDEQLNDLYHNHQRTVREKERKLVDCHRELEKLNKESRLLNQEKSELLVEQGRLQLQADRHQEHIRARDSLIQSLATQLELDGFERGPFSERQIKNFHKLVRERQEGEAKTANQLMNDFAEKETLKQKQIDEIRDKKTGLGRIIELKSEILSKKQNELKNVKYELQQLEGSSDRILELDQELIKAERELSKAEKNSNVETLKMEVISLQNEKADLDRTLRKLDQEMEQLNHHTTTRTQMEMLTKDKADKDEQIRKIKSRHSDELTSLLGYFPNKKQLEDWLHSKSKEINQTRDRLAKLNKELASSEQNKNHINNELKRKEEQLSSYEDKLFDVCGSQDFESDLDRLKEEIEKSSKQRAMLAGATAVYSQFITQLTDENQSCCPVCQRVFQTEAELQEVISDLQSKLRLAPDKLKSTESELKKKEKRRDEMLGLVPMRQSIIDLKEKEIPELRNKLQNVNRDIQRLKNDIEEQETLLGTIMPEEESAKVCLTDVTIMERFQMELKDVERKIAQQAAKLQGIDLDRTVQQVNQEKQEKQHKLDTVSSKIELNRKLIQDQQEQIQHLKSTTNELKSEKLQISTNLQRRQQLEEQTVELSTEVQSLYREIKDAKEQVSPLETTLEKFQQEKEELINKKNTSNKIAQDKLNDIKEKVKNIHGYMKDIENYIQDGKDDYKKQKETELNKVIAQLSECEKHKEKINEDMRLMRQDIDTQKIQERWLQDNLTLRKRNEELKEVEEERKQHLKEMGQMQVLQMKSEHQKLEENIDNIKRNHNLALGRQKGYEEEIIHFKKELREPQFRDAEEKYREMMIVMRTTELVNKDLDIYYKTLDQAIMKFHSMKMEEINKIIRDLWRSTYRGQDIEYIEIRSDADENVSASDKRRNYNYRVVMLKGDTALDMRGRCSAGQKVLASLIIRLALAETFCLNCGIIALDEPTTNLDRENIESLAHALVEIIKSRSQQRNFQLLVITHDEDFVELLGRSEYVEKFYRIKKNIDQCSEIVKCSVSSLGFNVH

Target: FLAG-RNF126 C229A/C232A (catalytically inactive RNF126 mutant) (human) (UniProt Q9BV68)
Test: affinity purification with mass spectrometry; extracts of HCC1806 cells stably expressing FLAG-RNF126 mutant immunopurified with anti-FLAG affinity beads, eluted with FLAG peptide, SDS/PAGE, silver stain, mass spectrometry

RAD50 (endogenous, HCC1806) (from UniProt Q92878 1-1312)
binding: binds

Results are given in words; binding and its absence hold for the method and conditions named. Binding seen in cells or lysates may run through a third protein. These calls come from enrichment with a bait or labelling near it, and not all partners need be listed.
